US10806729B2, “Quinoline derivatives for use in the treatment or prevention of viral infection” (ABIVAX, priority 2015, dated 2020)
For at least one compound, name, drawing or mass did not settle the structure.

Tested on: HIV-1
Conditions: human PBMCs, increasing drug pressure
Procedure: Resistance to Compound 22 was tested on human PBMCs and compared to current therapies. […] Various classes of antiviral agents can affect the life cycle of HIV-1 in different manners. […] The selection of drug resistant mutants in vitro can be readily accomplished by maintaining the virus in a state of sub-optimal growth, regulated by slowly increasing the amount of drug pressure applied. This technique mimics the consequences of drug therapy in patients. Therefore, in this way, novel compounds can be assessed for their selection profile in order to evaluate the likelihood of emergence of HIV-1 drug resistance in future clinical trials. In addition, combinations of drugs can be investigated in the same manner.

**Q.** How did the “Mutation Selected” value turn out when `C[C@H](Cn1cnc2c(N)ncnc21)OCP(=O)(O)O` [Tenofovir, reference compound] was run?
**A.** Its value is “K65R”.
